Results on 1 molecule are retold here after patent publication US20170183404A1.

These are yes or no findings as the source states them, for the method shown. Binding can be weak; no strength is given.

The test addresses truncDelta mMor1 reconstituted in liposomes (mouse). Put plainly: ELISA, periplasmic extract on truncDelta mMor1 liposomes with Dmt1-Dalda.

B1: XA8727 (VHH)
VHH: QVQLVESGGGLVQAGGSLRLSCAASGFTFDDYAIAWFRQAPGKEREGVSCISSSDGSTYYADSVKGRFTISNDNAKNTVYLQMNSLKPEDTAVYYCAADLSRSCGRGYRYLEVWGQGTQVTVSS
On to B1, for which the binding entry is recorded as “binds”.
